# Positions count from the first letter of the chain named. Results are given in words; binding and its absence hold for the method and conditions named. Some results given as binding are weak or reduced against the parent protein; the word gives no strength.
# By UniProt entry, the sequences of proteins in these tests, tags left out. Residues count along the entry.
# UniProt A9YYE7, residues 24-186: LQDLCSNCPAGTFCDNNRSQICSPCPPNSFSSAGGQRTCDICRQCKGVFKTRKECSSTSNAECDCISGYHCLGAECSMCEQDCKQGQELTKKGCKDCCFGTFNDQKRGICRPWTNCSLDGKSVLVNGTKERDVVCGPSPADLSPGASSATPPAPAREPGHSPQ
# B1: Anti-CD137 clone 2-9 IgG2 wt (antibody, V domains shown)
# VH: QVQLVQSGAEVKKPGASVKASCKASGFNIQDTYIHWVRQAPGQGLEWMGRIDPANGNSEYAQKFQGRVTMTRDTSTSTVYMELSSLRSEDTAVYYCTTGNLHYALMDYWGQGTSVTVSS
# VL: DIQMTQSPSSVSASVGDRVTITCKASQPINTYLSWYQQKPGKAPKLLIYRVNRKVDGVPSRFSGSGSGTDFTLTISSLQPEDFATYYCLQYLDFPYTFGGGTKLEIKR
# B2: Clone 5 Fab (Fab, V domains shown)
# VH: B1 VH with A20V, Q30R, R50K, S58T, A104G
# VL: B1 VL with P28A, L33H, K54M
# B3: Clone 9 Fab (Fab, V domains shown)
# VH: B1 VH with A20V, I29L, Q30K, R50K, S58T
# VL: B1 VL with P28A, N30A, V51A, K54M, V55Y, Y91F, L92D
# B4: Clone 2-9 Fab (Fab, V domains shown)
# VH: B1 VH
# VL: B1 VL
# B5: Clone 33 Fab (Fab, V domains shown)
# VH: B1 VH with A20V, Q30K, H35Q, R50K, S58T, E59M
# VL: B1 VL with P28T, V51A, K54M, V55P, L92D
# B6: Clone 18 Fab (Fab, V domains shown)
# VH: B1 VH with A20V, K23Q, Q30K, E46G, R50K, N57M, S58T, M70V
# VL: B1 VL with P28A, I29P, V51A, K54M, L92E
# B7: Clone 2-11 Fab (Fab, V domains shown)
# VH: B1 VH with A20V, Q30K, R50K, N57G, S58T
# VL: B1 VL with L92V
# B8: Clone 20 Fab (Fab, V domains shown)
# VH: B1 VH with A20V, I29M, Q30K, R50K, N57D, S58T
# VL: B1 VL with P28A, V51A, K54A
# B9: Clone 25 Fab (Fab, V domains shown)
# VH: B1 VH with A20V, A104G
# VL: B1 VL with P28A, V51D, L92Q, T97K
# B10: Clone 23 Fab (Fab, V domains shown)
# VH: B1 VH with A20V, Q30K, R50K, N57Q, S58T
# VL: B1 VL with P28A, V51A, K54M, D56G, L92R
# B11: Clone 3 Fab (Fab, V domains shown)
# VH: B1 VH with A20V, I29P, Q30K, N57F, S58T
# VL: B1 VL with P28A, V51A, K54M, P80H, Y91S, L92D
# B12: Clone 19 Fab (Fab, V domains shown)
# VH: B1 VH with A20V, I29M, Q30K, R50K, N57A, S58T, A104G
# VL: B1 VL with P28A, V51A, K54M, V55G, Y91S, L92D
# B13: Clone 35 Fab (Fab, V domains shown)
# VH: B1 VH with A20V, Q30N, N57Y, S58T
# VL: B1 VL with P28A, N30A, V51A, K54M, Y91F, L92Q
# Molecular target: Cyno CD137-his (cynomolgus monkey) (UniProt A9YYE7)
# Experiment: BLI (Octet Red 96)
row,binding,Binder
1,binds,B1

# Molecular target: cynomolgus-CD137 ECD (cynomolgus) (UniProt A9YYE7)
# Experiment: ELISA of Fab in supernatants of SS320 cells
row,binding,Binder
1,binds,B2
2,binds,B3
3,binds,B4
4,binds,B5
5,binds,B6
6,binds,B7
7,binds,B8
8,binds,B9
9,binds,B10
10,binds,B11
11,binds,B12
12,binds,B13

# Reference: US20240076395A1
